Data as given in the supplement of paper PMC10849652.
The list shows a part of the results.

By UniProt entry, the sequences of proteins in these tests, tags left out. Where a name states a change or a piece, a line headed by the entry shows the natural chain unless it says otherwise.
UniProt Q9BT30: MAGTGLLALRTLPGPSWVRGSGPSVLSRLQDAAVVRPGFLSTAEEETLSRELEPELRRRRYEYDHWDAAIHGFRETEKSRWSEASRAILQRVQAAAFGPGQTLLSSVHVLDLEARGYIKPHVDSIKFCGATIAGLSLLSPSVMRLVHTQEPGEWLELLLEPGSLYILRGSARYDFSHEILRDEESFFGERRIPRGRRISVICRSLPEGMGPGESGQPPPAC
UniProt Q68DC2: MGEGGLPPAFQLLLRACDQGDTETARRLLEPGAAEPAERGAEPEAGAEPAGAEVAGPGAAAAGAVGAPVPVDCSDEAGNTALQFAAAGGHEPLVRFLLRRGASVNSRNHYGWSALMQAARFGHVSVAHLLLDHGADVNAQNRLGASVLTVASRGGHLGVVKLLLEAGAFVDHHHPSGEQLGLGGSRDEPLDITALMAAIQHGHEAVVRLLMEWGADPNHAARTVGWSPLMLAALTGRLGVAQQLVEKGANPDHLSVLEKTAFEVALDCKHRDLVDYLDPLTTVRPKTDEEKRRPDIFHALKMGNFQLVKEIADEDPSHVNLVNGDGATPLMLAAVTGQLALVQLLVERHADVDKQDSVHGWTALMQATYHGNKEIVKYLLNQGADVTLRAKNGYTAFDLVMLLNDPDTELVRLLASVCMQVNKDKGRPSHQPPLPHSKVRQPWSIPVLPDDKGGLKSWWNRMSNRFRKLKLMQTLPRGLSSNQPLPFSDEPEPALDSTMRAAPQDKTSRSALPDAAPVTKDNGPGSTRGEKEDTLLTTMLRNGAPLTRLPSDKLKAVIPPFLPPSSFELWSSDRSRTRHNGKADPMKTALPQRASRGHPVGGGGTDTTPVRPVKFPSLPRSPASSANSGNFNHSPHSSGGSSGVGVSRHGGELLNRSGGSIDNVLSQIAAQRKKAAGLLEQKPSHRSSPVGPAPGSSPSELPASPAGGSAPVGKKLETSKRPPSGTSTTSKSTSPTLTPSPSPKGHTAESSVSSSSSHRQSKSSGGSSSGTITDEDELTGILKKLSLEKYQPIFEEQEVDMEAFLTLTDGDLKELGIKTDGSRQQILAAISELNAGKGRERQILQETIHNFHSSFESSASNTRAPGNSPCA
UniProt Q9H8T0: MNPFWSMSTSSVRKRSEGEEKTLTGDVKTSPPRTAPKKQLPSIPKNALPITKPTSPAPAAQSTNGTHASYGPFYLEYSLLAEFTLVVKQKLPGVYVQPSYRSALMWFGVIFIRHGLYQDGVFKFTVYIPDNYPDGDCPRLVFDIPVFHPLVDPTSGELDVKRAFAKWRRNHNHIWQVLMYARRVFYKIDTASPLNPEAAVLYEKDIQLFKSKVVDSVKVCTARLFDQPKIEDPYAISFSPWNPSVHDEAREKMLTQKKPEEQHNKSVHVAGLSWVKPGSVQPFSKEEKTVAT
UniProt P54886: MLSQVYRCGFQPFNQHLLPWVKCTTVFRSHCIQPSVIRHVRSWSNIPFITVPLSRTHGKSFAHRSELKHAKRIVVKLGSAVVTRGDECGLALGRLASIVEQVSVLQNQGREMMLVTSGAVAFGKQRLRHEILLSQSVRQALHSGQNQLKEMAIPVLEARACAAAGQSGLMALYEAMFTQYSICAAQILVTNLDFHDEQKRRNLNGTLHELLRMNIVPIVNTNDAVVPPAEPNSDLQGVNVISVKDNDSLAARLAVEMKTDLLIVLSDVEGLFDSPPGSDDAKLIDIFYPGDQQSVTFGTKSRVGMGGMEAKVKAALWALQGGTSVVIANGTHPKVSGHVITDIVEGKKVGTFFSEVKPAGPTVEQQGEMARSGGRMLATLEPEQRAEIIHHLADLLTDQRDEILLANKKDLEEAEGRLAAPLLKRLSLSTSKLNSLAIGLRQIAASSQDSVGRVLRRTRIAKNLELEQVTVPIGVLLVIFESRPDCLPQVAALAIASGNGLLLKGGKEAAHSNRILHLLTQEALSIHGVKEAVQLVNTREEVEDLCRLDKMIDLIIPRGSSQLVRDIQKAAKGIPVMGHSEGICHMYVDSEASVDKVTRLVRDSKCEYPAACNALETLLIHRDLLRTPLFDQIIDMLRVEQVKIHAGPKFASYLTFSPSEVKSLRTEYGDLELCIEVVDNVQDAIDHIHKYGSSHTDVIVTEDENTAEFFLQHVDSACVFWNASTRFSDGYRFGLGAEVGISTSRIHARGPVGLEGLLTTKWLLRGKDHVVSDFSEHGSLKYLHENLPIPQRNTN
UniProt Q9BS18, whole entry, looked up: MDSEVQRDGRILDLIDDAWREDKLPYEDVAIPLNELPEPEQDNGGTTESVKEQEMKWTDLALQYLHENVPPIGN
UniProt Q6ZW76: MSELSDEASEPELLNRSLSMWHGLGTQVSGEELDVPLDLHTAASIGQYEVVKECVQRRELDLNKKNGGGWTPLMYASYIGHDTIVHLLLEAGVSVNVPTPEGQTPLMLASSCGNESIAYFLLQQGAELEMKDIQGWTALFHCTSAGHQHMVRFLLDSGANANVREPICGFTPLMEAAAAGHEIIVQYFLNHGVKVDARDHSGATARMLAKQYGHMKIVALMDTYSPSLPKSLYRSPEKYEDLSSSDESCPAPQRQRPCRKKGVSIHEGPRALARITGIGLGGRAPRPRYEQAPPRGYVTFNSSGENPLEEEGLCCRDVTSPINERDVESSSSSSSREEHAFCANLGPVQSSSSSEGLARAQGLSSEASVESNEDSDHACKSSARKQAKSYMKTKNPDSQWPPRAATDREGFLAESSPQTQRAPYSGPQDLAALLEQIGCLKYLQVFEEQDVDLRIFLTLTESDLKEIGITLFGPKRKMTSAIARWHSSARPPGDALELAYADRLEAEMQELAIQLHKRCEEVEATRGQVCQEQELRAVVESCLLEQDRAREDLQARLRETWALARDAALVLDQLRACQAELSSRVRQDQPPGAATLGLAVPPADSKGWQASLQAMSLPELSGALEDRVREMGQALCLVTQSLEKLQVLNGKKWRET
UniProt Q9BTT0: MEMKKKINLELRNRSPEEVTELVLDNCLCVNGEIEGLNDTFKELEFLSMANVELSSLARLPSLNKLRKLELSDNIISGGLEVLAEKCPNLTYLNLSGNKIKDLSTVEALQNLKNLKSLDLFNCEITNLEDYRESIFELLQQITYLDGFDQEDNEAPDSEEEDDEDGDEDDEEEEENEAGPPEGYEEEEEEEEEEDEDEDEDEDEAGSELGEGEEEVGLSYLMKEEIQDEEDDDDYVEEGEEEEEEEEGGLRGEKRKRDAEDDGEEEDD
UniProt P49189: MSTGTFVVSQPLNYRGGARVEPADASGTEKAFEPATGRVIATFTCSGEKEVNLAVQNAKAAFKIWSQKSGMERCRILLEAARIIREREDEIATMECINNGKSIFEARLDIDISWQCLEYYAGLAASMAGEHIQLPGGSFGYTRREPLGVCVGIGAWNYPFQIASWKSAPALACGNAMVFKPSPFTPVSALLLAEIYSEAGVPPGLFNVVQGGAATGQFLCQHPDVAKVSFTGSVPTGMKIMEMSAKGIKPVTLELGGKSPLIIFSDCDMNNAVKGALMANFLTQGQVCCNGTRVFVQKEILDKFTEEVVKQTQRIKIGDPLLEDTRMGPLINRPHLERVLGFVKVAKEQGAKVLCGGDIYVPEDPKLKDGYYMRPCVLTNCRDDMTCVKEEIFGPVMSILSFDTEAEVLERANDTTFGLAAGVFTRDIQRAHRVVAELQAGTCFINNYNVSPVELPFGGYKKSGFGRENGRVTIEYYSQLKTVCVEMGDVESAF
UniProt P13196: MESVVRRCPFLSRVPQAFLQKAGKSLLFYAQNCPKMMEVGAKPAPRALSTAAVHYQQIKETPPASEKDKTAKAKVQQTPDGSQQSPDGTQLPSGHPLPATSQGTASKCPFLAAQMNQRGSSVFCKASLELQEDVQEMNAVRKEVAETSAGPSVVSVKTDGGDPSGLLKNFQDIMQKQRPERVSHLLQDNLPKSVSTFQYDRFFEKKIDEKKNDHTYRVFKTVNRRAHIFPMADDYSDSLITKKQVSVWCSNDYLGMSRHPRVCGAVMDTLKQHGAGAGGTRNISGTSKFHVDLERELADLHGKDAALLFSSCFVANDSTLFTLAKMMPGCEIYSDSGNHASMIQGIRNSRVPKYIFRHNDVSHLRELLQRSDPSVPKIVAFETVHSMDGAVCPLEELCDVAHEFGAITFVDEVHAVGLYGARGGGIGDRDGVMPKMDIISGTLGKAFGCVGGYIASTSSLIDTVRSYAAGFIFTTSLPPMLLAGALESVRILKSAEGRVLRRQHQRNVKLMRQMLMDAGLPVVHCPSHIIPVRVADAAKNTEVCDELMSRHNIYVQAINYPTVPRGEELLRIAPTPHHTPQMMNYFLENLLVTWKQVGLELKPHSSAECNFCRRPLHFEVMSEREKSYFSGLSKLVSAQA
UniProt Q9NYG5, whole entry, looked up: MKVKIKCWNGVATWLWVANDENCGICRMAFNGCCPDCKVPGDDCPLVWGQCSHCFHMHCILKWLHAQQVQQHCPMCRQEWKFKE
UniProt Q9BXX3: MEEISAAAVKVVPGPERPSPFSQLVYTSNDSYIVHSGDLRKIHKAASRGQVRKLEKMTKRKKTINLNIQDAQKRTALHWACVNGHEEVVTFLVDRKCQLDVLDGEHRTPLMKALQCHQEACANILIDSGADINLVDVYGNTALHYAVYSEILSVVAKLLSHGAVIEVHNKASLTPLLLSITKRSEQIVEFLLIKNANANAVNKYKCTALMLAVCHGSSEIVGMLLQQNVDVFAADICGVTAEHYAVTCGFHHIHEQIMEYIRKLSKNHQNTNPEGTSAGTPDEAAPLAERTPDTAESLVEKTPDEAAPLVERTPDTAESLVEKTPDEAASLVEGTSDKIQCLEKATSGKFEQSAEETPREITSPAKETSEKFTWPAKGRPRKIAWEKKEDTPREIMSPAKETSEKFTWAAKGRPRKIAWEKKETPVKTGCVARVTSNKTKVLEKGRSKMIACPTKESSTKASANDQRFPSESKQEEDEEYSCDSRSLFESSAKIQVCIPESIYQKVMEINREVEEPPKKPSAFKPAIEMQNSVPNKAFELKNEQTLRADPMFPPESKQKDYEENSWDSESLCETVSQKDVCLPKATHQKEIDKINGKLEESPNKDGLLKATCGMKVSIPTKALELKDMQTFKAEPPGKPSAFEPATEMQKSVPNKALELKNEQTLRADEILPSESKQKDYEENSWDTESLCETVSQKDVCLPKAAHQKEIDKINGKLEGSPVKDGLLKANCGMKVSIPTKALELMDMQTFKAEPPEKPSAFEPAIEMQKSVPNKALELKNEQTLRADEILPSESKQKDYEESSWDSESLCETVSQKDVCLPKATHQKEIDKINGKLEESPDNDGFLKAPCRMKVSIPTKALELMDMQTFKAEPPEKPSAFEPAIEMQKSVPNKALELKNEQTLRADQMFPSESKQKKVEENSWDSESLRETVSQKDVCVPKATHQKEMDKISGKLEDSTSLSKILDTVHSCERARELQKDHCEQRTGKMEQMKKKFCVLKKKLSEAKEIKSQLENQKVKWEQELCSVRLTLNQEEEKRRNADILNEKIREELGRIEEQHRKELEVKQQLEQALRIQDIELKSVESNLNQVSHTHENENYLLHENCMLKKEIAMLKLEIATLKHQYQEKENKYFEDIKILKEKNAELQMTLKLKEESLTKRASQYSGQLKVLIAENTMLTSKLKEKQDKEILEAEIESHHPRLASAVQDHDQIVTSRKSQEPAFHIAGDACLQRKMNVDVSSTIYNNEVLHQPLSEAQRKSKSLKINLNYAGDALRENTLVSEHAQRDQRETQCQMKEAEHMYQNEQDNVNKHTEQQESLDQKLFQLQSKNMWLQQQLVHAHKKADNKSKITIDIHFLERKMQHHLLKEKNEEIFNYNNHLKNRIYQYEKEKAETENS
UniProt A1A5B4: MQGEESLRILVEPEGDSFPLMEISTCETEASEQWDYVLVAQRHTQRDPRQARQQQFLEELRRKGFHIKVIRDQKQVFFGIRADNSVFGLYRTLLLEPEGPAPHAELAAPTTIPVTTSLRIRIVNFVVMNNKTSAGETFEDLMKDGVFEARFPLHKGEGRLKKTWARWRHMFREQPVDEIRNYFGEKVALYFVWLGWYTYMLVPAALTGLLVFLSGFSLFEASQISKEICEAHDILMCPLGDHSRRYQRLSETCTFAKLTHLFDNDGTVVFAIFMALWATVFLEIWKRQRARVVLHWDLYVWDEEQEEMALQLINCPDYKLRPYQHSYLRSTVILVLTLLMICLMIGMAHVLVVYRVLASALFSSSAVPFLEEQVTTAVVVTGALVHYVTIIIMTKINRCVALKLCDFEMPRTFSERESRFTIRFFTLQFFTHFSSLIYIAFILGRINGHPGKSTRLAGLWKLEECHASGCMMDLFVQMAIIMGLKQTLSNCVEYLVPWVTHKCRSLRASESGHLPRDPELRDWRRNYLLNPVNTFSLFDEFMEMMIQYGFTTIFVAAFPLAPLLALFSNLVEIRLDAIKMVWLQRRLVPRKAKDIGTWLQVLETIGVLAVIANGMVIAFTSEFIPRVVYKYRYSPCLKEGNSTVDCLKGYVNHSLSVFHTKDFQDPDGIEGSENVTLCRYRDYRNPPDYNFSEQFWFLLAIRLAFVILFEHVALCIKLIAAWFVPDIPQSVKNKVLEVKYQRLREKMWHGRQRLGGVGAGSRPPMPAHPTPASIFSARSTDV

compound: C1=CC(=CC=C1C2=NC3=C(N2)C=C(C=C3)C(=O)N)OC4=CC=C(C=C4)Cl; assay: log2 fold change, soluble protein after heating vs DMSO (PISA); higher = thermal stabilisation; K562 lysate, 10 uM; active = over 0.2 and 3.5 SD of the protein, either way, in both replicates (recomputed)
Outline: (§1)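 Values give the log-two fold change in thermal stability against solvent controls, from duplicates. Crude K562 extract at 1 mg/mL protein, made by dounce homogenisation in PBS pH 7.4 with 1 mM MgCl2, was treated with 10 μM compound for 30 min. After 3 min heating across 48°C-58°C, aliquots were pooled, adjusted to 0.5% NP-40 at 4°C and centrifuged at 21,000xg for 90 min. The supernatant was measured by TMTpro 16plex LC-MS/MS with channel sums equalised.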

log2 fold change, inactive:
ANAPC15 isoform 2 (UniProt P60006) 0.154, ALDH3A1 (UniProt P30838) 0.257, ALKBH7 (UniProt Q9BT30) -0.02, ANKS6 isoform 4 (UniProt Q68DC2) 0.106, AKTIP isoform 2 (UniProt Q9H8T0) 0.12, ANKHD1 (UniProt D6RHC4) 0.211, ANXA6 (UniProt E5RK69) 0.096, ANKRD50 (UniProt Q9ULJ7) 0.169

compound: C1=CC2=C(C=CC(=C2)/C=C\3/C(=O)NC(=NCC4=CC=CS4)S3)N=C1; assay: as above
Outline: as §1

log2 fold change, inactive:
ALDH18A1 isoform 2 (UniProt P54886) -0.142, ANAPC13 (UniProt Q9BS18) -0.009, AMDHD2 (UniProt Q9Y303) 0.212, ANKS3 (UniProt Q6ZW76) -0.005, ANP32E isoform 3 (UniProt Q9BTT0) -0.002, AMIGO2 (UniProt Q86SJ2) 0.091, ALDH9A1 (UniProt P49189) -0.093

compound: C1=CC2=NC=CN=C2C=C1/C=C/3\C(=O)NC(=O)S3; assay: as above
Outline: as §1

log2 fold change, inactive:
ANKRD31 (UniProt Q8N7Z5) -0.111, ALAS1 (UniProt P13196) 0.093, ANKRD13C (UniProt Q8N6S4) 0.006, ANAPC11 (UniProt Q9NYG5) 0.031, AP1B1 isoform 3 (UniProt Q10567) -0.095, ANKS3 (UniProt Q6ZW76) 0.111, ANP32E isoform 3 (UniProt Q9BTT0) -0.011, ANKRD16 (UniProt Q6P6B7) -0.018, ANKRD30A (UniProt Q9BXX3) 0.035, ANK2 (UniProt Q01484) -0.044, ALDH9A1 (UniProt P49189) 0.005, AP2S1 (UniProt M0QZ21) -0.027

compound: C1=CC=C(C=C1)C2=NC(=C(N2)C3=CC=NC=C3)C4=CC(=C(C=C4)Cl)O; assay: as above
Outline: as §1

log2 fold change, inactive:
AP2M1 (UniProt C9JTK4) -0.038, ALDH18A1 isoform 2 (UniProt P54886) 0.092, ANGEL1 (UniProt Q9UNK9) -0.131, ALAS1 (UniProt P13196) 0.029, ANKIB1 (UniProt Q9P2G1) -0.037, ALDH3A1 (UniProt P30838) 0.147, ANKRD13C (UniProt Q8N6S4) 0.12, ALKBH7 (UniProt Q9BT30) 0, ANAPC11 (UniProt Q9NYG5) -0.014, AMOT (UniProt Q4VCS5) 0.009, AP1B1 isoform 3 (UniProt Q10567) -0.247, ANKS6 isoform 4 (UniProt Q68DC2) -0.117, ALDH3A2 isoform 2 (UniProt P51648) 0.001, ANKRD30A (UniProt Q9BXX3) -0.06, AKTIP isoform 2 (UniProt Q9H8T0) -0.024, ANKHD1 (UniProt D6RHC4) -0.032, ANO9 (UniProt A1A5B4) 0.449, ANK2 (UniProt Q01484) -0.077, ANKRD50 (UniProt Q9ULJ7) -0.046, ALDH9A1 (UniProt P49189) -0.004, ANKRD12 (UniProt Q6UB98) 0.065

compound: C1=CC=C2C(=C1)C3=NNC4=CC=CC(=C43)C2=O; assay: as above
Outline: as §1

log2 fold change, inactive:
ALDH18A1 isoform 2 (UniProt P54886) -0.05, ANAPC13 (UniProt Q9BS18) -0.241, AMDHD2 (UniProt Q9Y303) -0.391, ANKS3 (UniProt Q6ZW76) -0.065, ANP32E isoform 3 (UniProt Q9BTT0) 0.012, AMIGO2 (UniProt Q86SJ2) -0.012, ALDH9A1 (UniProt P49189) -0.046

compound: C1CCN(C1)C(=O)NC2=CC=CC(=C2)NC3=NC=C(C(=N3)NCCC4=CN=CN4)Br; assay: as above
Outline: as §1

log2 fold change, inactive:
ANKRD31 (UniProt Q8N7Z5) -0.099, ALAS1 (UniProt P13196) 0.014, ANAPC15 isoform 2 (UniProt P60006) 0.194, ANAPC13 (UniProt Q9BS18) 0.262, ALKBH7 (UniProt Q9BT30) -0.033, AMOT (UniProt Q4VCS5) 0.058, ALDH1A3 (UniProt P47895) 0.38, ANKS6 isoform 4 (UniProt Q68DC2) -0.054, ANKS3 (UniProt Q6ZW76) -0.016, ANP32E isoform 3 (UniProt Q9BTT0) 0.075, ANKRD16 (UniProt Q6P6B7) -0.126, ANKRD30A (UniProt Q9BXX3) 0.415, AKTIP isoform 2 (UniProt Q9H8T0) 0.018, ANKRD13B (UniProt Q86YJ7) 0.048, ANXA6 (UniProt E5RK69) -0.098, ANKRD50 (UniProt Q9ULJ7) -0.037, ANKRD12 (UniProt Q6UB98) 0.097
